From patent US9487570B2 (BETTA PHARMACEUTICALS CO., LTD, priority 2010, dated 2016)

Assay: general procedure: Fmoc solid-phase peptide synthesis; Rink Amide MBHA; symmetric anhydrides / preformed HOBt esters (Boc); HBTU with NMM (Fmoc)
Settings: whole synthesis, RP-HPLC mass spectrometry (Hewlett Packard LCMS-1100, diode array detector, ESI), scale 100 μmole

For “[Q-linker-d8, Glu22]GLP-1-(7-37)-peptide”, the “final HPLC purity” value was over 95%.
